Results from patent US7018791B1, “Binding complexes” (Institute of Cancer Research: Royal Cancer Hospital, priority 1997, dated 2006).
Results are given in words; binding and its absence hold for the method and conditions named. Some entries that bind do so weakly or less than the wild type.

Chains of the proteins cited; added tags and fusions are not shown. Residues count along the entry.
UniProt P80316, residues 2-541: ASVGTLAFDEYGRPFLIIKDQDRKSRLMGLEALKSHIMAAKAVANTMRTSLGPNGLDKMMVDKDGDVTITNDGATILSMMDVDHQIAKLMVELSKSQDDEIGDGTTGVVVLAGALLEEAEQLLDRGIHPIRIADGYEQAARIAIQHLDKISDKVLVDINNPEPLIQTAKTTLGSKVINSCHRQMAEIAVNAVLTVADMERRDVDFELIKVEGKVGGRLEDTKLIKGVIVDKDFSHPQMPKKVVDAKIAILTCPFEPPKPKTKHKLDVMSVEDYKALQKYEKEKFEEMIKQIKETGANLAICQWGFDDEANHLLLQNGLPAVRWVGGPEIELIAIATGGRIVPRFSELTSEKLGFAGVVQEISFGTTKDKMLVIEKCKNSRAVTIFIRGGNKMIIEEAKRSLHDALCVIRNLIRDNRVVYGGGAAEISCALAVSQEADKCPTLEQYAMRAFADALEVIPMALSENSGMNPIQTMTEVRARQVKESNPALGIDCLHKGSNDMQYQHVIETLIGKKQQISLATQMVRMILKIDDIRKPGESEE
UniProt P80317, residues 2-531: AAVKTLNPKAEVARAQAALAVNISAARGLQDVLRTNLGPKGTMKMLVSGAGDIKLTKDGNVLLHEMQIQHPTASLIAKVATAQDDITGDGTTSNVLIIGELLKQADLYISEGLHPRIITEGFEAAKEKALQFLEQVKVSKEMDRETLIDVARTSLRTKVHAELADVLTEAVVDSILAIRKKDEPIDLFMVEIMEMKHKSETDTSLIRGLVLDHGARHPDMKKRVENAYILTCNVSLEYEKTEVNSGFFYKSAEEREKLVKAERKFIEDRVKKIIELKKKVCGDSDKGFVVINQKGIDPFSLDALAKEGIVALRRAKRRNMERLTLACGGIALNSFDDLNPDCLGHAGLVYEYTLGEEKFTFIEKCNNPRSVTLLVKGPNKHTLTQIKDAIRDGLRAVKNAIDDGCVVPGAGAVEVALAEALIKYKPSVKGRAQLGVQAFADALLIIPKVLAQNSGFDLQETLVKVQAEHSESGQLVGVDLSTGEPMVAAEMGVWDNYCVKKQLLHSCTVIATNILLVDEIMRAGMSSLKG

Assays:
[1] = target: mouse CCTε subunit (mouse) (UniProt P80316); assay: superimposable bands, 6% non-denaturing PAGE Western blot of mouse testis sucrose fractions 13 and 14, subunit-specific antibodies
[2] = target: T1, mouse CCTβ subunit (mouse) (UniProt P80314); assay: as above
T1 sequence (looked up): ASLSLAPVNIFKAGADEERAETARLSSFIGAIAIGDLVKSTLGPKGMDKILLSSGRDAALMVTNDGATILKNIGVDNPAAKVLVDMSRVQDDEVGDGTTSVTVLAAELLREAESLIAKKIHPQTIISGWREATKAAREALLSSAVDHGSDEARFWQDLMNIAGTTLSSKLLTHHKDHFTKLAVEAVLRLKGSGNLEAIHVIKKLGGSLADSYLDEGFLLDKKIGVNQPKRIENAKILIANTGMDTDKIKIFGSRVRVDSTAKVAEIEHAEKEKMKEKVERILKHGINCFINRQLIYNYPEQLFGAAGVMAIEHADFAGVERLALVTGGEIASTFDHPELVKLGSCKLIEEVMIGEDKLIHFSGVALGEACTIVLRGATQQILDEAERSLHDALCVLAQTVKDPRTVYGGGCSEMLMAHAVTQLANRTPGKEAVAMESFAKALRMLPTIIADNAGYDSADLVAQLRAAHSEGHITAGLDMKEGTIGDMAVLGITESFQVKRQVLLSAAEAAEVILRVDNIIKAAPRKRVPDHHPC

**Q.** Which results are given for “mouse CCTζ subunit (from UniProt P80317 2-531)”?
**A.** binding [1]: binds; binding [2]: binds
